From patent US20250011448A1
Residue numbers refer to the chain shown, from its start. No constants are given. Whether binding was seen depends on the method and setting.

Experiments:
insulin [1] = assay: ELISA, plate coated with insulin, serial dilution of antibody
insulin [2] = assay: non-specific binding ELISA on plate-coated insulin, goat anti-human IgG Fc-AP detection, OD405

B1: 51B5 chimeric anti-TNFR2 antibody (antibody, V domains shown)
VH: QVQLQQSGAELARPGTSVKLSCKASGYTFTDDYIDWVKQRTGQGLEWIGEIYPGSGNTYYNEKFKGKATLTADKSSSTAYMQLSSLTSEDSAVYFCARSQVYGKIAMDHWGQGTSVTVSS
VL: DIVLTQSPASLAVSLGQRATISCRASESVDNSGNSFMHWYQQIPGQPPKLLIYRASNLESGIPARFSGSGARTDFTLTIDPVGAVDVATYYCQQSKEDPYTFGGGTKLEIE
binding (insulin [1]): no binding
binding (insulin [2]): no binding (tested: about 100 ug/ml)

B2: 102E4 chimeric anti-TNFR2 antibody (antibody, V domains shown)
VH: EVLLQQSGAELVRPGASVKLSCTASGFNIKDDFIHWVQQRPEQGLEWIGRINPSNANTEYAPKFQDKATITTDTSSNTAYLQLSSLTSEDTAVYYCTRNDGYYDGLFYWGQGTTLTVSS
VL: DIVMTQSHKFMSSSVGDRVSITCKASQDVGTAVAWYQQKPGQSPKLLIYWASTRHTGVPDRFTGSGSGTDFTLTISNVQSEDLADYFCQQYSSYPFTFGSGTKLEIK
binding (insulin [1]): no binding
binding (insulin [2]): no binding (tested: about 100 ug/ml)

B3: 29G3 chimeric anti-TNFR2 antibody (antibody, V domains shown)
VH: EVMLVESGGASVKPGGSLKLSCAASGFTFSNFAMSWVRQTPEKRLEWVATIRSGDNYSYYSDNVKGRFTISRDNARNTLYLQMSSLRSKDTSIYYCARNWDKVFDYWGQGTTLTVSS
VL: DIVLTQSPASLAVSLGQRATISCRASESVDSYGYSFMHWYQQKPGQPPKLLIYRASNLKSGIPARFSGSGSRTDFTLTINPVEADDVATYYCQQSNEDHTFGGGTKLEIK
binding (insulin [1]): no binding
binding (insulin [2]): no binding (tested: about 100 ug/ml)

B4: 85G8.4 chimeric anti-TNFR2 antibody (antibody, V domains shown)
VH: EVQLQQSGPELVKPGASVKISCKTSGYTFTDFNMDWVKQSHGKSLEWIGYINPNNGDAAYNQKFKSKATLTVDKSSNTAYMELHSLTSDDSAVYYCARWGWAFAYWGQGTLVTVSA
VL: DIVMTQSHKIMSTSVGDRVSITCKASQDVKTAVAWYQQKPGQSPKLLIYATSYRYTGVPDRFTGSGSGTDFTFTISTVQAEDLAVYYCQQHYSIPYTFGGGTKLEIK
binding (insulin [1]): no binding
binding (insulin [2]): no binding (tested: about 100 ug/ml)

B5: 15H10 chimeric anti-TNFR2 antibody (antibody, V domains shown)
VH: DVQLQESGPGLVTPSQSLSLTCSVTGYSITSGYYWNWIRQFPGNKLEWMGYITYDGNNNYNPSLKSRFSITRDTSKNQFFLKLNSVTSEDTATYYCARGDYGDSAMDYWGQGTSVTVSS
VL: EIVLTQSPAITAASLGQKVTITCSASSGVNYMHWYQQKSGTSPKPWIYEISKLASGVPARFSGSGSGTSYSLTISSMEAEDAAIYYCQQWNYPLITFGAGTKVELK
binding (insulin [1]): no binding
binding (insulin [2]): no binding (tested: about 100 ug/ml)

B6: 11C1 chimeric anti-TNFR2 antibody (antibody, V domains shown)
VH: B5 VH with Q5R, F41I, N61D, S66N, F68I, K82T
VL: B5 VL with G28S, N30S, T73I, V103L
binding (insulin [1]): no binding
binding (insulin [2]): no binding (tested: about 100 ug/ml)

B7: 6F12 chimeric anti-TNFR2 antibody (antibody, V domains shown)
VH: QIQLVQSGPELKKPGETVKISCKTSGYTFTIYGMNWVKQAPGKGLKWMGWIHTYTGEPTYADDFKGRFVFSLETSDSTAYLQINNLKSEDMATYFCVRRERYGSFWGQGTLVTVSA
VL: DIVLTQSPASLAVSLGQRATISCTASQSVDYGGVSYMNWYQQKPGQPPKLLIYGASNQESGIPVRFSGSGSGTDFTLNIHPVEEEDAATYYCQQSNEDPPTFGAGTKLELK
binding (insulin [1]): no binding
